Values from PubChem BioAssay AID1224830 (NIAID, 2016)
The whole screen tested about 18,000 reagents; this is an unselected part. About 2,900 of them (16%) count as active. 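Calls are made per well; low scores hint the gene aids the LPS response, high scores that it dampens it.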 Unmarked entries are inactive. Repeated entries: four replicate wells of each siRNA pool.

Purpose: 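Genes whose knock-down alters the TNF-alpha reporter response to LPS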 (primary screen)
Cells: human THP-1 monocytic leukaemia cells, TNF dual-luciferase reporter clone, PMA-differentiated to macrophage-like cells
Knock-down reagent: siRNA pool against human genes, 50 nM
Time to read-out: LPS for 4 h, given about 3 days after siRNA transfection
Challenge: bacterial LPS (TLR4 ligand), 10 ng/ml
Measured: 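TNF firefly reporter luminescence divided by renilla, normalised to the plate median, then turned into a robust z-score for each replicate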
Scale: TNF reporter robust z-score: higher = stronger TNF reporter response to LPS
Call rule: 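a well is active when its z-score exceeds 2.8 or falls below -1.5; control wells carry no call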

{"gene knocked down": "GUCY2F", "PubChem SID": "SID315449113", "TNF reporter robust z-score": -0.24}
{"gene knocked down": "GUCY2F", "PubChem SID": "SID315449113", "TNF reporter robust z-score": 1.36}
{"gene knocked down": "GUCY2F", "PubChem SID": "SID315449113", "TNF reporter robust z-score": 1.76}
{"gene knocked down": "GUCY2F", "PubChem SID": "SID315449113", "TNF reporter robust z-score": 2.72}
{"gene knocked down": "KREMEN1", "PubChem SID": "SID315460155", "TNF reporter robust z-score": 0.96}
{"gene knocked down": "KREMEN1", "PubChem SID": "SID315460155", "TNF reporter robust z-score": 1.17}
{"gene knocked down": "KREMEN1", "PubChem SID": "SID315460155", "TNF reporter robust z-score": -0.18}
{"gene knocked down": "KREMEN1", "PubChem SID": "SID315460155", "TNF reporter robust z-score": "3.59 (active)"}
{"gene knocked down": "HSPB8", "PubChem SID": "SID315455777", "TNF reporter robust z-score": -0.97}
{"gene knocked down": "HSPB8", "PubChem SID": "SID315455777", "TNF reporter robust z-score": -0.02}
{"gene knocked down": "HSPB8", "PubChem SID": "SID315455777", "TNF reporter robust z-score": -0.5}
{"gene knocked down": "HSPB8", "PubChem SID": "SID315455777", "TNF reporter robust z-score": 0.08}
{"gene knocked down": "DUOX1", "PubChem SID": "SID315456942", "TNF reporter robust z-score": -0.19}
{"gene knocked down": "DUOX1", "PubChem SID": "SID315456942", "TNF reporter robust z-score": 0.59}
{"gene knocked down": "DUOX1", "PubChem SID": "SID315456942", "TNF reporter robust z-score": 0.66}
{"gene knocked down": "DUOX1", "PubChem SID": "SID315456942", "TNF reporter robust z-score": 0}
{"gene knocked down": "RAP1GDS1", "PubChem SID": "SID315451049", "TNF reporter robust z-score": -0.39}
{"gene knocked down": "RAP1GDS1", "PubChem SID": "SID315451049", "TNF reporter robust z-score": -0.32}
{"gene knocked down": "RAP1GDS1", "PubChem SID": "SID315451049", "TNF reporter robust z-score": -0.47}
{"gene knocked down": "RAP1GDS1", "PubChem SID": "SID315451049", "TNF reporter robust z-score": -0.53}
{"gene knocked down": "DNAJC12", "PubChem SID": "SID315458083", "TNF reporter robust z-score": 1.66}
{"gene knocked down": "DNAJC12", "PubChem SID": "SID315458083", "TNF reporter robust z-score": 1.22}
{"gene knocked down": "DNAJC12", "PubChem SID": "SID315458083", "TNF reporter robust z-score": -1.03}
{"gene knocked down": "DNAJC12", "PubChem SID": "SID315458083", "TNF reporter robust z-score": 0}
{"gene knocked down": "OSBP", "PubChem SID": "SID315450378", "TNF reporter robust z-score": 0.03}
{"gene knocked down": "OSBP", "PubChem SID": "SID315450378", "TNF reporter robust z-score": 0.07}
{"gene knocked down": "OSBP", "PubChem SID": "SID315450378", "TNF reporter robust z-score": 1.16}
{"gene knocked down": "LIG3", "PubChem SID": "SID315449766", "TNF reporter robust z-score": -0.49}
{"gene knocked down": "LIG3", "PubChem SID": "SID315449766", "TNF reporter robust z-score": 0.72}
{"gene knocked down": "LIG3", "PubChem SID": "SID315449766", "TNF reporter robust z-score": -0.31}
{"gene knocked down": "LIG3", "PubChem SID": "SID315449766", "TNF reporter robust z-score": -0.67}
{"gene knocked down": "CACNB1", "PubChem SID": "SID315447662", "TNF reporter robust z-score": -0.38}
{"gene knocked down": "CACNB1", "PubChem SID": "SID315447662", "TNF reporter robust z-score": 1.83}
{"gene knocked down": "CACNB1", "PubChem SID": "SID315447662", "TNF reporter robust z-score": 0.26}
{"gene knocked down": "CACNB1", "PubChem SID": "SID315447662", "TNF reporter robust z-score": 0.84}
{"gene knocked down": "SLC27A2", "PubChem SID": "SID315454523", "TNF reporter robust z-score": 0.51}
{"gene knocked down": "SLC27A2", "PubChem SID": "SID315454523", "TNF reporter robust z-score": -0.22}
{"gene knocked down": "SLC27A2", "PubChem SID": "SID315454523", "TNF reporter robust z-score": 0.68}
{"gene knocked down": "SLC27A2", "PubChem SID": "SID315454523", "TNF reporter robust z-score": 1.8}
{"gene knocked down": "FAM107B", "PubChem SID": "SID315460043", "TNF reporter robust z-score": -0.69}
{"gene knocked down": "FAM107B", "PubChem SID": "SID315460043", "TNF reporter robust z-score": -0.44}
{"gene knocked down": "FAM107B", "PubChem SID": "SID315460043", "TNF reporter robust z-score": -0.29}
{"gene knocked down": "FAM107B", "PubChem SID": "SID315460043", "TNF reporter robust z-score": -0.01}
{"gene knocked down": "PGGHG", "PubChem SID": "SID315459675", "TNF reporter robust z-score": 0.12}
{"gene knocked down": "PGGHG", "PubChem SID": "SID315459675", "TNF reporter robust z-score": 1.5}
{"gene knocked down": "PGGHG", "PubChem SID": "SID315459675", "TNF reporter robust z-score": 0.44}
{"gene knocked down": "PGGHG", "PubChem SID": "SID315459675", "TNF reporter robust z-score": 1.63}
{"gene knocked down": "STN1", "PubChem SID": "SID315459610", "TNF reporter robust z-score": -0.79}
{"gene knocked down": "STN1", "PubChem SID": "SID315459610", "TNF reporter robust z-score": -1.45}
{"gene knocked down": "STN1", "PubChem SID": "SID315459610", "TNF reporter robust z-score": -1.13}
{"gene knocked down": "STN1", "PubChem SID": "SID315459610", "TNF reporter robust z-score": -0.14}
{"gene knocked down": "PCTP", "PubChem SID": "SID315458629", "TNF reporter robust z-score": 1.8}
{"gene knocked down": "PCTP", "PubChem SID": "SID315458629", "TNF reporter robust z-score": 0.31}
{"gene knocked down": "PCTP", "PubChem SID": "SID315458629", "TNF reporter robust z-score": -1.15}
{"gene knocked down": "PCTP", "PubChem SID": "SID315458629", "TNF reporter robust z-score": -0.65}
{"gene knocked down": "SLMAP", "PubChem SID": "SID315452334", "TNF reporter robust z-score": -0.79}
{"gene knocked down": "SLMAP", "PubChem SID": "SID315452334", "TNF reporter robust z-score": 0.87}
{"gene knocked down": "SLMAP", "PubChem SID": "SID315452334", "TNF reporter robust z-score": -0.58}
{"gene knocked down": "SLMAP", "PubChem SID": "SID315452334", "TNF reporter robust z-score": -0.99}
{"gene knocked down": "EIF3C", "PubChem SID": "SID315452727", "TNF reporter robust z-score": -0.9}
{"gene knocked down": "EIF3C", "PubChem SID": "SID315452727", "TNF reporter robust z-score": -0.41}
{"gene knocked down": "EIF3C", "PubChem SID": "SID315452727", "TNF reporter robust z-score": -0.65}
{"gene knocked down": "EIF3C", "PubChem SID": "SID315452727", "TNF reporter robust z-score": -0.54}

Called active, of those listed so far:
{"gene knocked down": "KREMEN1", "PubChem SID": "SID315460155", "TNF reporter robust z-score": "3.59 (active)"}
